# Test results as given in PubChem BioAssay AID504327 (National Center for Advancing Translational Sciences (NCATS), 2011).
# Chains of the proteins cited; added tags and fusions are not shown.
# UniProt Q92830, whole entry, looked up: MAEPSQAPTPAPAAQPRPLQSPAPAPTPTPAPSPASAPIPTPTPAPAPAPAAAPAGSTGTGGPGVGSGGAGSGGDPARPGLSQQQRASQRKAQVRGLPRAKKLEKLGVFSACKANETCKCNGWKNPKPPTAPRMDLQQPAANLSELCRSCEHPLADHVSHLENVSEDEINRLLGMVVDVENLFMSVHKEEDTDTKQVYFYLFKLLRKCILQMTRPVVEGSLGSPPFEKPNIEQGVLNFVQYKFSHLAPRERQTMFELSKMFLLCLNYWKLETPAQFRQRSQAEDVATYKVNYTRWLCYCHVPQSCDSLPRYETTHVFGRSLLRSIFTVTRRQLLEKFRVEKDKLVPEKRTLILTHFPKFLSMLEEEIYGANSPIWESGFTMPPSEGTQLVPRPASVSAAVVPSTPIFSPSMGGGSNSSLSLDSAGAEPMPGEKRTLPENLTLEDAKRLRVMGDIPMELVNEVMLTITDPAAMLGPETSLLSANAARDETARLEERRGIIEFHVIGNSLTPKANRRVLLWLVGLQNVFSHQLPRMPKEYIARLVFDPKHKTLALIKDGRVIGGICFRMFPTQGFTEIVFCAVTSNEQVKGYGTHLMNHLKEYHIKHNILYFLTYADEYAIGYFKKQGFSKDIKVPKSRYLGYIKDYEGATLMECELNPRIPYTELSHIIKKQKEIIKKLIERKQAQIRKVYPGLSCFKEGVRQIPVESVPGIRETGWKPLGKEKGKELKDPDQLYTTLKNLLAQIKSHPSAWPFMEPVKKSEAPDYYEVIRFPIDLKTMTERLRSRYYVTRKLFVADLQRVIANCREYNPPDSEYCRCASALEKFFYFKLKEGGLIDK
# The campaign covered roughly 390,000 compounds. About 820 (0.21%) were called active. This list was built around the results that the source calls inconclusive (neither active nor inactive); the mix of calls is not that of the screen. Calls come from the whole dose curve; as a rule, active = well fitted inhibition curve with a large enough effect; inconclusive = small, poorly fitted or top-dose-only effect, or another doubt; inactive = no such curve, though single readings can be large or run the other way. Where the call is inconclusive, the potency comes from a doubtful curve fit.
# Molecular target: Histone acetyltransferase KAT2A (Homo sapiens) (UniProt Q92830)
# Assay: qHTS Assay for Inhibitors of GCN5L2
# Conditions: GCN5L2 HAT assay, ThioGlo1 CoA-SH fluorescence; activity change, negative = inhibition: at 58.9 µM (top of the series) unless noted
# Method in brief: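 GCN5L2 (20nM final) in 50mM HEPES, 0.1mM EDTA pH 7.5, 0.01% Tween-20 was preincubated 15 min at room temperature with compound, then given ThioGlo1 (50uM), H3(1-25) peptide (75uM) and acetyl-CoA (70uM); CoA-thiol fluorescence (Ex340/Em540) was read at 0 and 20 min.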
# % is set by controls: 0 for no effect and ±100 for the full control effect; potency is the fitted concentration of half-maximal effect.
Compound,Potency,"activity change, negative = inhibition"
CCn1c(SC(C)C(=O)Nc2nccs2)nnc1-c1ccncc1 (stereo unspecified),"inconclusive: 0.224 µM [inhibitor, full curve, poor fit]",–
CN(C)CCCCOc1ccccc1-c1ccccc1,"inconclusive: 0.447 µM [inhibitor, partial curve, poor fit]",–
CCC(c1nnnn1C(C)(C)C)N1CCN(Cc2ccccc2OC)CC1 (stereo unspecified),inactive,–
Cc1cccc(C(=O)N2CCN(c3ccc([N+](=O)[O-])c(N4CCOCC4)c3)CC2)c1,"inconclusive: 0.141 µM [inhibitor, full curve, poor fit]",–
Cc1ccc(N2C(=O)N3[C@H](c4cccc(C)c4)[C@@H]4C(=O)N(Cc5ccccc5)C(=O)[C@@H]4[C@]3(C)C2=O)cc1,"inconclusive: 39.8 µM [inhibitor, single point]",–
Cc1cccc(-c2noc(CN(C(=O)c3ccccc3Cl)C(C)C)n2)c1,inactive,–
CC1=C(CC(=O)O)c2cc(F)ccc2/C1=C\c1ccc(S(C)=O)cc1 (stereo unspecified),"inconclusive: 39.8 µM [inhibitor, partial curve, poor fit]",–
CCN(CC)CCOC(=O)/C=C/c1ccccc1,"inconclusive: 39.8 µM [inhibitor, single point]",–
COc1cc(SC#N)ccc1N=Cc1c(C)[nH]n(-c2cccc3ccccc23)c1=O,"inconclusive: 0.501 µM [inhibitor, partial curve, poor fit]",–
CCOc1ccccc1NC(=O)CSc1nccn1-c1ccccc1,"inconclusive: 15.8 µM [inhibitor, partial curve]",–
CCOC(=O)c1ccc(N2C(=O)c3n[nH]c(C)c3C2c2ccc(C(C)(C)C)cc2)cc1 (stereo unspecified),inactive,–
COCCN=C1N[C@@H](c2ccccc2)C(C(=O)OC)=C(C)N1Cc1ccccc1,"inconclusive: 5.01 µM [inhibitor, single point]",–
CC(CCc1ccccc1)NC(=O)COC(=O)c1ccc(NC(=O)CC#N)cc1 (stereo unspecified),"inconclusive: 0.112 µM [inhibitor, full curve, poor fit]",–
COCCN(C(=O)COC(=O)c1cc2c(s1)CCC2)c1c(N)n(Cc2ccccc2)c(=O)[nH]c1=O,"inconclusive: 11.2 µM [inhibitor, partial curve]",–
COc1ccc(Cc2nnc(SCC(=O)Nc3ccc(C)c(Cl)c3)[nH]c2=O)cc1,"inconclusive: 7.08 µM [inhibitor, single point]",–
COc1ccc(Oc2c(C(F)(F)F)oc3cc(OCC(=O)O)ccc3c2=O)cc1,"inconclusive: 39.8 µM [inhibitor, single point]",–
Cc1ccc2c(Cl)cc(Cl)c(OCC(=O)N3CCCC3)c2n1,inactive,–
COc1ccc(/C=N/NC(=O)c2ccccc2)cc1CN1CCN(c2ccc(F)cc2)CC1,inactive,–
O=c1[nH]c2ccc(NCc3ccccc3OCc3ccc(Cl)cc3)cc2[nH]1,"inconclusive: 0.794 µM [inhibitor, single point]",–
CC1=CS(=O)(=O)CC1Sc1nc2ccccc2[nH]1 (stereo unspecified),inactive,–
C[N+]1(CCCCC[N+]2(C)CCCC2)CCCC1,"inconclusive: 39.8 µM [inhibitor, single point]",–
O=C(COc1ccc2ccccc2c1)N1CCN(C(=O)c2cccnc2)CC1,"inconclusive: 0.794 µM [inhibitor, partial curve, poor fit]",–

Compound,Potency,"activity change, negative = inhibition"
Cc1ccc(NC(=O)CCNS(=O)(=O)c2ccc(Br)s2)cc1,"inconclusive: 39.8 µM [inhibitor, single point]",–
COc1cccc(C=NCCCN=Cc2cccc(OC)c2O)c1O,inactive,–
COc1cc(NC(=O)c2ccc(-c3nc(COc4ccccc4)c(C)o3)cc2)cc(OC)c1,inactive,–
COc1ccc2c(c1)c1c(c(=O)n(-c3ccc(C)cc3)c(=O)n1CC(=O)N1CCCC1)n2C,"inconclusive: 39.8 µM [inhibitor, single point]",–
CCOC(=O)Cc1cc(=O)n(-c2nc3ccccc3s2)[nH]1,"inconclusive: 31.6 µM [inhibitor, single point]",–
Cc1ccc(S(=O)(=O)c2cnc(SC(C)C(=O)Nc3ccccc3)[nH]c2=O)cc1 (stereo unspecified),inactive,–
CC(=O)Nc1cc(C(=O)N2CCCC2)ccc1S(=O)(=O)c1ccc(Cl)cc1,"inconclusive: 39.8 µM [inhibitor, single point]",–
COc1cccc(N2C(=O)CC(N3CCc4ccccc43)C2=O)c1 (stereo unspecified),"inconclusive: 0.794 µM [inhibitor, partial curve, poor fit]",–
CCOC(=O)c1ccc(NC(=O)Nc2ccc3c4c(cccc24)C(=O)N3CC)cc1,"inconclusive: 4.47 µM [inhibitor, partial curve]",–
CC(=O)Nc1cccc(NC(=O)CSc2nc(C3CC3)nc3ccccc23)c1,inactive,–
CCNc1ncc2nc(-c3cccs3)c(=O)n(Cc3ccc(F)cc3)c2n1,"inconclusive: 28.2 µM [inhibitor, partial curve]",–
O=C(CCC(=O)c1cccs1)Nc1ccc(N2CCCCC2)cc1,inactive,–
O=c1c(-c2cccs2)nc2cnc(Oc3ccccc3)nc2n1-c1ccccc1,"inconclusive: 39.8 µM [inhibitor, single point]",–
Cc1ccc(F)c(CNC(=O)C2CCC(=O)N(CCN3CCOCC3)C2)c1F (stereo unspecified),"inconclusive: 0.631 µM [inhibitor, full curve, poor fit]",–
Cc1cc(S(=O)(=O)N(Cc2ccccc2F)C2CC2)ccc1-n1cnnn1,"inconclusive: 39.8 µM [inhibitor, single point]",–
CCSc1ccc(-c2nn(-c3ccccc3)cc2/C=C(/C#N)C(=O)NCCCOC)cc1,"inconclusive: 39.8 µM [inhibitor, single point]",–
COC(=O)c1ccc(COc2ccc(/C=C/C(=O)c3ccc(OC)c(CSCC(=O)O)c3)cc2OC)cc1,"inconclusive: 39.8 µM [inhibitor, single point]",–
Cc1c(CCC(=O)NCCc2ccccc2)c(=O)oc2cc(O)ccc12,"inconclusive: 31.6 µM [inhibitor, partial curve]",–
CSC1=C(C#N)C(c2cccs2)CC(=O)N1C (stereo unspecified),inactive,–
CC(C)c1cc(C(=O)Nc2ccc3c(c2)OCO3)no1,"inconclusive: 3.98 µM [inhibitor, partial curve, poor fit]",–
Cc1ccc(S(=O)(=O)Nc2c(Cl)c(Cl)c(O)c3ccccc23)cc1,"inconclusive: 22.4 µM [inhibitor, partial curve, poor fit]",–
O=C(O)c1ccc(CSCc2ccccc2Cl)o1,inactive,–

Compound,Potency,"activity change, negative = inhibition"
O=C(N/N=C/c1c[nH]c2ccccc12)c1ccccc1O,"inconclusive: 7.08 µM [inhibitor, single point]",–
Cc1ccc(C(=O)N2CC(C)CC(C)C2)cc1NC1=NC2CS(=O)(=O)CC2S1 (stereo unspecified),"inconclusive: 0.794 µM [inhibitor, full curve, poor fit]",–
CC(C)Sc1nc2ccccc2n1CC(=O)O,"inconclusive: 39.8 µM [inhibitor, single point]",–
CCOc1ccc(CCNC(=O)c2ccc3c(Cl)c4c(nc3c2)CCCC4)cc1,inactive,–
Cc1ccc(S(=O)(=O)N2CCN(c3ncnc4scc(-c5ccc(F)cc5)c34)CC2)cc1,"inconclusive: 7.08 µM [inhibitor, single point]",–
CCC(C)NC(=O)c1ccccc1NC(=O)c1ccc(CSc2ccc(C)cc2)cc1 (stereo unspecified),"inconclusive: 39.8 µM [inhibitor, single point]",–
COc1cc(/C=C/C(=O)c2ccc(NS(=O)(=O)c3ccc(C)cc3)cc2)ccc1OC(F)F,inactive,–
COc1ccccc1/C=c1\sc2nc(-c3ccco3)nn2c1=O,"inconclusive: 35.5 µM [inhibitor, single point]",–
CCC1(C)Cc2ccccc2-c2nc3n(c(=O)c21)CCS3 (stereo unspecified),inactive,–
CCCCc1nc2cc(C(=O)NC3CCOC(C)(C)C3)ccc2o1 (stereo unspecified),"inconclusive: 44.7 µM [inhibitor, single point]",–
O=S1(=O)CCOC[C@H](c2ccccc2)N1Cc1cccc(Cl)c1,"inconclusive: 1 µM [inhibitor, single point]",–
O=C(CN1CCCCC1)n1c2ccccc2c2ccccc21,"inconclusive: 7.08 µM [inhibitor, single point]",–
COc1ccccc1N1CCN(C2CCCC(C)C2)CC1 (stereo unspecified),"inconclusive: 39.8 µM [inhibitor, single point]",–
Cc1ccc(C2NC(c3ccc(C)cc3)C(C)C(=NO)C2C)cc1 (stereo unspecified),"inconclusive: 39.8 µM [inhibitor, single point]",–
O=[N+]([O-])c1ccc(-c2nc(-c3ccc(F)cc3)c(-c3ccncc3)[nH]2)cc1,"inconclusive: 39.8 µM [inhibitor, single point]",–
COc1ccc(-c2coc3c(CN4CCOCC4)c(O)ccc3c2=O)cc1,"inconclusive: 25.1 µM [inhibitor, single point]",–
CN1CCN(NC(=O)Nc2ccc([N+](=O)[O-])cc2)CC1,"inconclusive: 39.8 µM [inhibitor, single point]",–
Cc1cnn(C(=S)NCc2ccco2)c1,"inconclusive: 31.6 µM [inhibitor, single point]",–
Cc1ccccc1-c1cc(N2CCNCC2)ncn1,"inconclusive: 20 µM [inhibitor, partial curve]",–
Cc1c(CC(=O)N[C@@H](C)C(=O)O)c(=O)oc2cc3occ(-c4ccccc4)c3cc12,"inconclusive: 39.8 µM [inhibitor, single point]",–
COc1ccc2c(c1)C(=O)N(c1ccccc1)C(=O)C2,"inconclusive: 6.31 µM [inhibitor, single point]",–
CCC(C)NC(=O)CSc1nc2ccccc2c(=O)n1Cc1ccc(OC)cc1 (stereo unspecified),–,inconclusive: -92.9% [inhibitor] [at 0.501 µM]

# Record cards, as listed above:
# `CCOC(=O)Cc1cc(=O)n(-c2nc3ccccc3s2)[nH]1` is listed with Potency: inconclusive: 31.6 µM [inhibitor, single point]
# `COc1ccc(Cc2nnc(SCC(=O)Nc3ccc(C)c(Cl)c3)[nH]c2=O)cc1` is listed with Potency: inconclusive: 7.08 µM [inhibitor, single point]
# `O=C(CCC(=O)c1cccs1)Nc1ccc(N2CCCCC2)cc1` is listed with Potency: inactive
